Results published in patent US4446325A, “1,4-Dihydropyridine compounds” (priority 1981, dated 1984).
At least one read-out could not be matched to a standard name with certainty.

System: enucleated heart of guinea-pig
Experiment: Effect on heart systole, enucleated heart of guinea-pig (Langendorf method)
Method: The effects of the compounds of this invention on the heat systole and the perfusion volume in the coronary artery in enucleated heart of guinea-pig were determined in accordance with the Langendorf method.

COC(=O)C1=C(C)NC(C)=C(C(=O)OCC2(C)OCCO2)C1c1cccc([N+](=O)[O-])c1 (centres unmarked) [Compound A, Methyl 2,2-ethylenedioxypropyl 2,6-dimethyl-4-(3-nitrophenyl)-1,4-dihydropyridine-3,5-dicarboxylate]
Effects on Heart Systole: Changes in Systole (dose 1 × 10^-6 g): -32.9% | Effects on Heart Systole: Changes in Systole (dose 1 × 10^-7 g): -5.3%
